PMC3418687
No constants are given. Whether binding was seen depends on the method and setting. Some binding calls cover weakened binding; strength is not graded here.

Amino acid sequences for entries named in this document (tags omitted). Residues count along the entry.
UniProt P01009, residues 25-418: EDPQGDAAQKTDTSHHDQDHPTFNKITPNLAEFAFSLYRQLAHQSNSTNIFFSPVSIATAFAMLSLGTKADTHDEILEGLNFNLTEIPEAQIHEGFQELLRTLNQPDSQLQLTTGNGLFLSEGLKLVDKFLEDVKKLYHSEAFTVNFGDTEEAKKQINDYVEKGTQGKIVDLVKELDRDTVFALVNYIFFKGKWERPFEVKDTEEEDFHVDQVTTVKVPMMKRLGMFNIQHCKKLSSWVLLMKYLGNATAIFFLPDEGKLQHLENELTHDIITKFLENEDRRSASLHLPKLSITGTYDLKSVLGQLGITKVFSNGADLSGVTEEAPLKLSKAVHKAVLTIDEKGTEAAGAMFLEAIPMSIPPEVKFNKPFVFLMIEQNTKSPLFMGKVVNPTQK

T1: Cathepsin G (CG) purified from human neutrophils (human) (UniProt P08311)
T1 sequence: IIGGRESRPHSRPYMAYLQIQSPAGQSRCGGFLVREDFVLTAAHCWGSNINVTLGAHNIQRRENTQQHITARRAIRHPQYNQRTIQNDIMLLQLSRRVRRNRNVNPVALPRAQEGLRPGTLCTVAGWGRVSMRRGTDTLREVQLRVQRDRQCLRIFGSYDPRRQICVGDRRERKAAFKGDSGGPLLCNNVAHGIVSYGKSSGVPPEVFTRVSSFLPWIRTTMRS


Key:
[1] = biological target: T1, Cathepsin G (CG) purified from human neutrophils (human); test: covalent complex seen as a heavier band by SDS-PAGE and western blot; CG (1.67 pmol) incubated with AT (90.9 pmol) or ACT (1.5 pmol) in RPMI 1640 medium containing 1% BSA for 10 min at 4°C; western blot with anti-CG antibody; both purified
[2] = biological target: T1, Cathepsin G (CG) purified from human neutrophils (human); test: condition: only CG pretreated with chymostatin (661 pmol); covalent complex seen as a heavier band by SDS-PAGE and western blot; as a1, but CG pretreated with chymostatin (661 pmol) before AT or ACT; western blot with anti-CG antibody; both purified

binding [1] | binding [2] | Molecule
binds | no binding | α1-antitrypsin (AT) (from UniProt P01009 25-418)
binds | no binding | α1-antichymotrypsin (ACT) (protein, UniProt P01011 24-423) HPNSPLDEENLTQENQDRGTHVDLGLASANVDFAFSLYKQLVLKAPDKNVIFSPLSISTALAFLSLGAHNTTLTEILKGLKFNLTETSEAEIHQSFQHLLRTLNQSSDELQLSMGNAMFVKEQLSLLDRFTEDAKRLYGSEAFATDFQDSAAAKKLINDYVKNGTRGKITDLIKDLDSQTMMVLVNYIFFKAKWEMPFDPQDTHQSRFYLSKKKWVMVPMMSLHHLTIPYFRDEELSCTVVELKYTGNASALFILPDQDKMEEVEAMLLPETLKRWRDSLEFREIGELYLPKFSISRDYNLNDILLQLGIEEAFTSKADLSGITGARNLAVSQVVHKAVLDVFEEGTEASAATAVKITLLSALVETRTIVRFNRPFLMIIVPTDTQNIFFMSKVTNPKQA
